Results published in article PMC8307904, “Synthesis and Structure of Novel Copper(II) Complexes with N,O- or N,N-Donors as Radical Scavengers and a Functional Model of the Active Sites in Metalloenzymes” (International Journal of Molecular Sciences, 2021).

Columns and labels:
[1] = tested on: MCF-7 (breast adenocarcinoma); experiment: in vitro cytotoxicity / proliferation, MCF-7; format: cell-based, human; conditions: read-out: IC50 (inhibits proliferation of 50% of cells)
Excerpt: (§1) For IC50 determination, the human cancer lines A549 (non-small cell lung carcinoma), HT29 (colon adenocarcinoma) and MCF-7 (breast adenocarcinoma), and a healthy mouse fibroblast cell line (BALB/3T3), were used. All tested cell lines were obtained from the American Type Culture Collection (Rockville, MD, USA) and maintained at the Cell Culture Collection of the Hirszfeld Institute of Immunology and Experimental Therapy (Wrocław, Poland). The details of the experimental conditions were described in [69]. […] IC50 values were calculated separately for each experiment, which was repeated 3–5 times.

[2] = tested on: A549 (non-small cell lung carcinoma); experiment: in vitro cytotoxicity / proliferation, A549; format: cell-based, human; conditions: read-out: IC50 (inhibits proliferation of 50% of cells)
Excerpt: as §1

Structure (SMILES): N.N.[Cl][Pt][Cl] [cisplatin, reference compound]
- IC50 [1]: 8.2 ± 0.48 µM
- IC50 [2]: 3.03 ± 0.2 µM
